Measurements from PMC3606321.
These are yes or no findings as the source states them, for the method shown. Some binding calls cover weakened binding; strength is not graded here.

Amino acid sequences for entries named in this document (tags omitted). A change or cut given only in a name is not applied to a line headed by its entry.
UniProt P36873: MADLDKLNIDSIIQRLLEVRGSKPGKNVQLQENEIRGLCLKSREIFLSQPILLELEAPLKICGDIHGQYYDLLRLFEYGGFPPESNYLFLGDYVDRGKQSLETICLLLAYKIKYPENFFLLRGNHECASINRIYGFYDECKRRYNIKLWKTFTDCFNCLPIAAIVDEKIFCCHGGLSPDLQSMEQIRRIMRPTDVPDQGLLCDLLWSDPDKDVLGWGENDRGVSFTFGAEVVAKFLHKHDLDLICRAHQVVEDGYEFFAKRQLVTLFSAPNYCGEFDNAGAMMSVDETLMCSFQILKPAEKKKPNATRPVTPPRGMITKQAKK
UniProt P62136: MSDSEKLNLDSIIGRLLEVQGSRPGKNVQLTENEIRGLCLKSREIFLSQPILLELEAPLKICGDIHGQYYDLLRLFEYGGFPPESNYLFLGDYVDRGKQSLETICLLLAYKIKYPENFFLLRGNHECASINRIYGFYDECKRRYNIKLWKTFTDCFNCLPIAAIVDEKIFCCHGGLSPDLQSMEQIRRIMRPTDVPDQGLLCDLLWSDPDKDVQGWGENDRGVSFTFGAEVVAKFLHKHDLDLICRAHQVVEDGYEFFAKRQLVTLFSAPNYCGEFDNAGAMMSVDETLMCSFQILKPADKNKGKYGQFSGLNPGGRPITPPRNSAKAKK

Tests used:
[1] = substrate: PPP1CC1, two-hybrid bait pAS2-PPP1CC1 (human) (UniProt P36873); experiment: two-hybrid; screen of a human testis cDNA library with PPP1CC1 as bait; 120 positive clones recovered
[2] = substrate: PPP1CC1, two-hybrid bait pAS2-PPP1CC1 (human) (UniProt P36873); experiment: two-hybrid; sequential co-transformation of yeast AH109 with bait (pAS2) and prey (pACT2) plasmids; selective media with X-alpha-Gal, 30 C, MEL1 expression (blue colour)
[3] = target: PPP1CC2, two-hybrid bait pAS2-PPP1CC2 (human) (UniProt P36873); experiment: as above
[4] = target: PPP1CA, two-hybrid bait pAS2-PPP1CA (UniProt P62136); experiment: as above

Measured: binding

B1: PPP1R2P3 (PPP1R2 pseudogene 3), two-hybrid prey pACT2-PPP1R2P3 (protein, UniProt Q6NXS1 1-205)
chain: MAASTASHRPIKGILKNKTSTTSSMVASAEQPRRSVDEELSKKSQKWDEINILATYHPADKGYGLMKIDEPSPPYHSMMGDDEDACRDTETTEAMAPDILAKKLAAAEGLEPKYRIQEQESSGEEDSDLSPEEREKKRQFEMRRKLHYNEGLNIKLARQLISKDLHDDDEDEEMLETADGESMNTEESNQGSTPSDQQQNKLRSS
binds: [1] | [2] | [3] | [4]
